Measured values from ChEMBL document CHEMBL4316593 (Eur J Med Chem, 2019).
Further values from the same series stand in other lists.

Experiments:
Assay type in all cases: cell-based
Details in all cases: U-87MG ATCC
[1] = Inhibition of RTK/PI3K/AKT/mTOR signaling in human U87 cells assessed as down regulation of CPEB2 gene expression at cytotoxic IC50 measured after 48 hrs relative to control
[2] = Inhibition of RTK/PI3K/AKT/mTOR signaling in human U87 cells assessed as down regulation of CLSPN gene expression at cytotoxic IC50 measured after 48 hrs relative to control
[3] = Inhibition of RTK/PI3K/AKT/mTOR signaling in human U87 cells assessed as down regulation of KCNC3 gene expression at cytotoxic IC50 measured after 48 hrs relative to control
[4] = Inhibition of RTK/PI3K/AKT/mTOR signaling in human U87 cells assessed as down regulation of MTHFD2L gene expression at cytotoxic IC50 measured after 48 hrs relative to control
[5] = Inhibition of RTK/PI3K/AKT/mTOR signaling in human U87 cells assessed as down regulation of RYBP gene expression at cytotoxic IC50 measured after 48 hrs relative to control
[6] = Inhibition of RTK/PI3K/AKT/mTOR signaling in human U87 cells assessed as down regulation of TAF9B gene expression at cytotoxic IC50 measured after 48 hrs relative to control
[7] = Inhibition of RTK/PI3K/AKT/mTOR signaling in human U87 cells assessed as down regulation of OVOL1 gene expression at cytotoxic IC50 measured after 48 hrs relative to control
[8] = Inhibition of RTK/PI3K/AKT/mTOR signaling in human U87 cells assessed as down regulation of RSRC2 gene expression at cytotoxic IC50 measured after 48 hrs relative to control
[9] = Inhibition of RTK/PI3K/AKT/mTOR signaling in human U87 cells assessed as down regulation of RBM10 gene expression at cytotoxic IC50 measured after 48 hrs relative to control
[10] = Inhibition of RTK/PI3K/AKT/mTOR signaling in human U87 cells assessed as down regulation of ABCA3 gene expression at cytotoxic IC50 measured after 48 hrs relative to control
[11] = Inhibition of RTK/PI3K/AKT/mTOR signaling in human U87 cells assessed as down regulation of BLOC1S2 gene expression at cytotoxic IC50 measured after 48 hrs relative to control
[12] = Inhibition of RTK/PI3K/AKT/mTOR signaling in human U87 cells assessed as down regulation of MIR4435-2HG gene expression at cytotoxic IC50 measured after 48 hrs relative to control
[13] = Inhibition of RTK/PI3K/AKT/mTOR signaling in human U87 cells assessed as down regulation of CAPRIN2 gene expression at cytotoxic IC50 measured after 48 hrs relative to control
[14] = Inhibition of RTK/PI3K/AKT/mTOR signaling in human U87 cells assessed as down regulation of BCL6 gene expression at cytotoxic IC50 measured after 48 hrs relative to control
[15] = Inhibition of RTK/PI3K/AKT/mTOR signaling in human U87 cells assessed as down regulation of PPP2R1A gene expression at cytotoxic IC50 measured after 48 hrs relative to control
[16] = Inhibition of RTK/PI3K/AKT/mTOR signaling in human U87 cells assessed as down regulation of NQO2 gene expression at cytotoxic IC50 measured after 48 hrs relative to control
[17] = Inhibition of RTK/PI3K/AKT/mTOR signaling in human U87 cells assessed as down regulation of ARPC2 gene expression at cytotoxic IC50 measured after 48 hrs relative to control
[18] = Inhibition of RTK/PI3K/AKT/mTOR signaling in human U87 cells assessed as down regulation of CIZ1 gene expression at cytotoxic IC50 measured after 48 hrs relative to control
[19] = Inhibition of RTK/PI3K/AKT/mTOR signaling in human U87 cells assessed as up regulation of S100A14 gene expression at cytotoxic IC50 measured after 48 hrs relative to control
[20] = Inhibition of RTK/PI3K/AKT/mTOR signaling in human U87 cells assessed as up regulation of ACSM3 gene expression at cytotoxic IC50 measured after 48 hrs relative to control
[21] = Inhibition of RTK/PI3K/AKT/mTOR signaling in human U87 cells assessed as up regulation of EFNA4 gene expression at cytotoxic IC50 measured after 48 hrs relative to control
[22] = Inhibition of RTK/PI3K/AKT/mTOR signaling in human U87 cells assessed as up regulation of SLC43A1 gene expression at cytotoxic IC50 measured after 48 hrs relative to control
[23] = Inhibition of RTK/PI3K/AKT/mTOR signaling in human U87 cells assessed as up regulation of ST6 beta-galactoside alpha-2,6-sialyltransferase 1 gene expression at cytotoxic IC50 measured after 48 hrs relative to control
[24] = Inhibition of RTK/PI3K/AKT/mTOR signaling in human U87 cells assessed as up regulation of zona pellucida glycoprotein 3 gene expression at cytotoxic IC50 measured after 48 hrs relative to control
[25] = Inhibition of RTK/PI3K/AKT/mTOR signaling in human U87 cells assessed as up regulation of pyruvate dehydrogenase kinase 3 gene expression at cytotoxic IC50 measured after 48 hrs relative to control
[26] = Inhibition of RTK/PI3K/AKT/mTOR signaling in human U87 cells assessed as up regulation of Kruppel like factor 2 gene expression at cytotoxic IC50 measured after 48 hrs relative to control
[27] = Inhibition of RTK/PI3K/AKT/mTOR signaling in human U87 cells assessed as up regulation of recombination signal binding protein for immunoglobulin kappa J region gene expression at cytotoxic IC50 measured after 48 hrs relative to control
[28] = Inhibition of RTK/PI3K/AKT/mTOR signaling in human U87 cells assessed as up regulation of Sad1 and UNC84 domain containing 1 gene expression at cytotoxic IC50 measured after 48 hrs relative to control
[29] = Inhibition of RTK/PI3K/AKT/mTOR signaling in human U87 cells assessed as up regulation of NUS1 dehydrodolichyl diphosphate synthase subunit gene expression at cytotoxic IC50 measured after 48 hrs relative to control
[30] = Inhibition of RTK/PI3K/AKT/mTOR signaling in human U87 cells assessed as up regulation of URI1 gene expression at cytotoxic IC50 measured after 48 hrs relative to control
[31] = Inhibition of RTK/PI3K/AKT/mTOR signaling in human U87 cells assessed as up regulation of FGFR4 gene expression at cytotoxic IC50 measured after 48 hrs relative to control
[32] = Inhibition of RTK/PI3K/AKT/mTOR signaling in human U87 cells assessed as up regulation of SLC39A7 gene expression at cytotoxic IC50 measured after 48 hrs relative to control

## CC(=O)C(=NNc1ccccc1C#N)C(C)=O
[1]
  log2FC: -4.32
[2]
  log2FC: -2.2
[3]
  log2FC: -1.94
[4]
  log2FC: -1.45
[5]
  log2FC: -1.44
[6]
  log2FC: -1.41
[7]
  log2FC: -1.39
[8]
  log2FC: -0.862
[9]
  log2FC: -0.828
[10]
  log2FC: -0.825
[11]
  log2FC: -0.791
[12]
  log2FC: -0.785
[13]
  log2FC: -0.753
[14]
  log2FC: -0.748
[15]
  log2FC: -0.705
[16]
  log2FC: -0.567
[17]
  log2FC: -0.527
[18]
  log2FC: -0.5
[19]
  log2FC: 3.24
[20]
  log2FC: 1.9
[21]
  log2FC: 1.76
[22]
  log2FC: 1.61
[23]
  log2FC: 1.28
[24]
  log2FC: 1.25
[25]
  log2FC: 1.25
[26]
  log2FC: 1.17
[27]
  log2FC: 0.928
[28]
  log2FC: 0.795
[29]
  log2FC: 0.792
[30]
  log2FC: 0.639
[31]
  log2FC: 0.617
[32]
  log2FC: 0.574
